PubChem BioAssay AID662 (National Center for Advancing Translational Sciences (NCATS), 2007)
Several values for one entry are separate records, joined by “and”; a condition that tells them apart may be missing. Equal entries are not always repeated. Some of the results follow. Shown are side measurements of this screen, not its main read-out; they come without a call. Compounds called inactive in the main read-out are mostly missing here. Words in brackets tell the shape of the fitted curve; partial curves, single points and poor fits give uncertain potencies.

Assay: Cell signaling CRE-BLA (Fsk stim)
Details: CHO CRE-bla reporter (cAMP response element driving beta-lactamase), forskolin EC10, beta-lactamase ratio; measured here: 460 nm blue channel
Procedure, shortened: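 CHO CRE-bla cells, overnight plating in Opti-MEM with 0.5% dialyzed FBS; cpd titration + EC10 NKH 477, 3 h 37 °C; CCF4 2 h RT; ex 405/em 460 vs 530 ratio → %Activity, AC50.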
With `Cc1ccc2cc3c(N)c(C(=O)N4CCOCC4)sc3nc2c1` the AC50 was 10 µM [rising, partial curve]. For `CCCCn1c(NC(=O)CC)c(C#N)c2nc3ccccc3nc21`, the AC50 was 10 µM [rising, partial curve]. In the case of `O=Nc1ccc(Nc2ccccc2)cc1`, the AC50 is reported as 3.16 µM [falling, full curve]. With `CCCCNC(=O)c1cc2c(=O)n3cccc(C)c3nc2n1C` the AC50 was 5.01 µM [rising, partial curve]. For `CCc1cc2c(=O)n(Cc3ccco3)c(SCC(=O)N3CCCc4ccccc43)nc2s1`, the AC50 was 3.98 µM [rising, full curve]. For `CCCCN=C(C)c1c(O)c2ccccc2oc1=O`, the AC50 was 10 µM [rising, single point]. In the case of `Cn1nc(C(=O)NCc2ccccc2)c2ccccc2c1=O`, the AC50 is reported as 10 µM [rising, partial curve]. In the case of `O=C(O)CCn1c(C(=O)O)cc2sccc21`, the AC50 is reported as 3.98 µM [falling, single point]. In the case of `Cc1ccc(NC(=O)CSC2=C(C#N)C(c3ccco3)C3=C(CC(C)(C)CC3=O)N2)cc1` (stereo not drawn), the AC50 is reported as 12.6 µM [rising, single point]. In the case of `CCOc1ccc(-c2nnn(CC(=O)N3CCN(c4ccc(OC)cc4)CC3)n2)cc1OCC`, the AC50 is reported as 15.8 µM [rising, partial curve]. In the case of `Cc1cccc(OCC(=O)Nc2ccc(N3CCCC3)cc2)c1C`, the AC50 is reported as 3.16 µM [falling, partial curve]. For `Cc1cccc(NC(=O)Nc2cccc(C#N)c2)n1`, the AC50 was 3.16 µM [falling, full curve]. With `COc1cccc(Nc2ncc3ncc(=O)n(Cc4cccs4)c3n2)c1` the AC50 was 3.16 µM [falling, single point]. For `O=C(Nc1ccc2c3c(cccc13)CC2)c1ccco1`, the AC50 was 25.1 µM [falling, single point]. With `CCN(CC)S(=O)(=O)c1ccc(NC(=O)COc2c(OC)cccc2OC)cc1` the AC50 was 10 µM [rising, partial curve]. In the case of `Cc1ccc(-c2nnc3c4ccccc4c(C)nn23)cc1S(=O)(=O)N1CCN(C)CC1`, the AC50 is reported as 3.16 µM [rising, partial curve]. For `CCNCCNC(=O)c1c(O)c2cccc3c2n(c1=O)CCC3`, the AC50 was 15.8 µM [rising, single point]. In the case of `COc1cc(OC)c(C(=O)Oc2ccc3c(c2)OCO3)cc1OC`, the AC50 is reported as 25.1 µM [rising, single point]. For `CCOC(=O)/C=C/S(=O)(=O)c1ccc(NC(C)=O)cc1`, the AC50 was 6.31 µM [falling, partial curve]. With `COC(=O)c1cc(Cc2ccc(N)c(C(=O)OC)c2)ccc1N` the AC50 was 20 µM [rising, partial curve]. For `CCOc1ccc(C(=O)NCCn2cc(SCC(=O)Nc3cc(C)on3)c3ccccc32)cc1`, the AC50 was 0.251 µM [falling, full curve, poor fit]. In the case of `COCCN1Cc2cccc(C(=O)NCc3ccccc3OC)c2C1=O`, the AC50 is reported as 15.8 µM [rising, single point]. In the case of `O=c1cc(-c2ccc(O)c(O)c2)oc2cccc(O)c12`, the AC50 is reported as 25.1 µM [falling, single point]. For `Cc1ccccc1-c1ccc2ncnc(N3CCNCC3)c2c1`, the AC50 was 3.16 µM [rising, full curve]. With `O=C(O)c1cc(=O)c2ccccc2[nH]1` the AC50 was 12.6 µM [falling, single point] and 15.8 µM [falling, partial curve, poor fit]. In the case of `COc1ccccc1-c1cc(NCc2cccs2)ncn1`, the AC50 is reported as 15.8 µM [rising, partial curve]. In the case of `Cc1nc(SCC(=O)Nc2cc(C)on2)c2c(C)c(C)sc2n1`, the AC50 is reported as 0.251 µM [rising, full curve]. With `COc1ccc(NC(=O)CSc2nc3ccccc3c(=O)n2CCNC(C)=O)cc1` the AC50 was 25.1 µM [rising, single point]. For `CCOc1ccc(/C(O)=C2/C(=O)C(=O)N(CCOCCO)C2c2ccc(F)cc2)cc1` (stereo not drawn), the AC50 was 5.01 µM [rising, partial curve]. For `O=C(CCOc1ccccc1)Nc1ccc(S(=O)(=O)N2CCCC2)cc1`, the AC50 was 25.1 µM [rising, single point]. For `CC1CCCC(C)N1C(=O)CN1C(=O)C(C)(C)Oc2ccc(C(=O)NC3CCCCC3)cc21` (stereo not drawn), the AC50 was 3.98 µM [falling, partial curve]. For `CSc1cnn(-c2ccccc2)c(=O)c1SC`, the AC50 was 10 µM [rising, partial curve]. In the case of `Cc1cc(C)n(C(=O)c2cc3ccccc3c(=O)o2)n1`, the AC50 is reported as 0.00316 µM [falling, full curve, poor fit]. In the case of `COc1ccc(-n2nnnc2SCC(=O)N2CCCC2)cc1OC`, the AC50 is reported as 10 µM [rising, partial curve]. With `Cc1cc(C)c2c(n1)nn1c(N3CCN(Cc4ccccc4)CC3)cc(C)nc21` the AC50 was 0.00794 µM [rising, full curve, poor fit]. In the case of `COC(=O)CN(c1ccccc1F)S(=O)(=O)c1ccccc1`, the AC50 is reported as 0.00398 µM [falling, full curve]. For `Cc1cc(C)cc(NC(=O)CN(C)S(=O)(=O)c2cnc[nH]2)c1`, the AC50 was 12.6 µM [rising, partial curve, poor fit]. With `Cc1ccccc1N1C(=O)C(Cl)=C(N2CCN(c3ccccc3)CC2)C1=O` the AC50 was 12.6 µM [falling, single point]. For `O=C(Cc1cccs1)N1CCCC(c2nc3c(nnn3Cc3cccc(Cl)c3)c(=O)[nH]2)C1` (stereo not drawn), the AC50 was 15.8 µM [rising, single point]. In the case of `c1ccc(-c2nc3cc(Oc4ccc5oc(-c6ccccn6)nc5c4)ccc3o2)nc1`, the AC50 is reported as 12.6 µM [rising, single point]. For `O=C(CN1CCN(S(=O)(=O)c2ccc(F)cc2)CC1)Nc1ccc2c(c1)OCO2`, the AC50 was 0.1 µM [falling, full curve]. In the case of `CC1(C)CC(=O)C2=C(C1)N(CCN1CCOCC1)C1=C(C(=O)CC(C)(C)C1)C2c1cccc(F)c1`, the AC50 is reported as 10 µM [rising, partial curve]. In the case of `c1cncc(-c2nccc(-n3ccnc3)n2)c1`, the AC50 is reported as 6.31 µM [rising, partial curve]. For `COCCn1nnnc1C(c1ccc(OC)c(OC)c1)N1CCN(c2nc3ccccc3s2)CC1` (stereo not drawn), the AC50 was 1.26 µM [rising, partial curve]. With `N#CCCS(=O)(=O)c1nnnn1-c1ccccc1` the AC50 was 2 µM [falling, full curve]. In the case of `Cc1oc2ccc(OC(=O)N3CCOCC3)cc2c1C(=O)OC(C)C`, the AC50 is reported as 12.6 µM [rising, single point]. For `CCCCCOC(=O)CSc1nnc(-c2ccccc2)c(=O)[nH]1`, the AC50 was 0.0794 µM [falling, full curve]. With `O=C1CC(N2CCN(C/C=C/c3ccccc3)CC2)C(=O)N1Cc1ccc(N2CCCC2=O)cc1` (stereo not drawn) the AC50 was 0.794 µM [rising, full curve, poor fit]. With `Cc1noc(C)c1-c1ccc2ncnc(NCc3cccnc3)c2c1` the AC50 was 12.6 µM [rising, partial curve]. For `COc1ccc(NC(=O)C(C)NS(=O)(=O)c2ccc(NC(C)=O)cc2)cc1Cl` (stereo not drawn), the AC50 was 0.398 µM [falling, single point]. With `CC1CCCC(C)N1C(=O)Cn1c(SCC(=O)NCc2ccc3c(c2)OCO3)nc2ccccc21` (stereo not drawn) the AC50 was 0.0794 µM [falling, partial curve, poor fit]. With `COc1ncnc2c1oc1nc(C(C)C)c3c(c12)CC(C)(C)OC3` the AC50 was 0.398 µM [rising, full curve]. For `O=c1c(-c2cc(F)cc(F)c2)nc2cncnc2n1Cc1ccccc1`, the AC50 was 25.1 µM [rising, single point]. With `O=c1c2cc(N3CCOCC3)ccc2[nH]c(=S)n1CC1CCCO1` (stereo not drawn) the AC50 was 10 µM [rising, single point]. In the case of `COc1cc2c(C(=O)NCCCN3CCN(c4cccc(Cl)c4)CC3)cn(C)c(=O)c2cc1OC`, the AC50 is reported as 2.51 µM [rising, full curve]. In the case of `CCOC(=O)CSC1=C(C#N)C(c2ccccc2C)C2=C(CCCC2=O)N1` (stereo not drawn), the AC50 is reported as 0.316 µM [rising, full curve, poor fit]. For `COc1ccc2nc(C)cc(Nc3ccc(N4CCOCC4)cc3)c2c1`, the AC50 was 15.8 µM [rising, partial curve]. With `C=CCNc1nc(-c2sc(NC(=O)CC)nc2C)cs1` the AC50 was 1.58 µM [rising, single point]. In the case of `Cc1cc(N2CCC(C)CC2)nc(-n2nc(C)cc2C)n1`, the AC50 is reported as 12.6 µM [rising, single point]. With `CC1=NCCN1S(=O)(=O)c1cc(Cl)ccc1Cl` the AC50 was 0.0501 µM [falling, full curve]. For `COc1cc(C(=O)Nc2cc(-c3ccccc3)[nH]n2)cc(OC)c1OC`, the AC50 was 0.398 µM [rising, full curve]. In the case of `COc1cc(-c2noc(C3CCCN(S(=O)(=O)c4cccc(Cl)c4)C3)n2)cc(OC)c1OC` (stereo not drawn), the AC50 is reported as 0.501 µM [rising, full curve]. With `c1ccc(-c2cnc(-c3cccnc3)o2)cc1` the AC50 was 15.8 µM [rising, single point]. In the case of `CCCCOC(=O)C1=C(C)Nc2ncnn2C1c1cc(OC)c(OC)cc1OC` (stereo not drawn), the AC50 is reported as 10 µM [rising, partial curve]. For `CCc1ccc(C2C(C#N)=C(N)SC(N)=C2C#N)s1`, the AC50 was 25.1 µM [falling, single point]. For `COC(=O)c1ccccc1S(=O)(=O)N(Cc1cc2cc3c(cc2[nH]c1=O)OCO3)C1CCCCC1`, the AC50 was 15.8 µM [rising, partial curve]. In the case of `Cn1cc(S(=O)(=O)Nc2ccc(F)cc2F)c(=O)n(C)c1=O`, the AC50 is reported as 10 µM [rising, single point]. In the case of `O=C(COC(=O)C1CCCN1C(=O)c1cccs1)c1ccccc1` (stereo not drawn), the AC50 is reported as 0.01 µM [falling, partial curve, poor fit].
